Assay results as given in patent publication US20250002574A1.
Positions count from the first letter of the chain named. No constants are given. Whether binding was seen depends on the method and setting. Some entries that bind do so weakly or less than the wild type. One block for each binder: values may come before it.

How the values were obtained:
[1] = target: recombinant IL-11 (LSBio, LS-G132887-10) (UniProt P20809); experiment: ELISA, cytokine coated
IL-11-Fc protein = IL-11-Fc protein (UniProt P20809); experiment: competition ELISA: IL-11R-His coated, IL-11-Fc co-incubated with a dilution series of the antibody, bound IL-11-Fc detected with HRP goat anti-IgG-Fc; blocked partner IL-11R-His
[2] = target: T1, IL-11 stably expressed on CHO cells (membrane-IL-11 CHO) (UniProt P20809); experiment: flow cytometry on membrane-IL-11 CHO cells
T1 sequence (looked up): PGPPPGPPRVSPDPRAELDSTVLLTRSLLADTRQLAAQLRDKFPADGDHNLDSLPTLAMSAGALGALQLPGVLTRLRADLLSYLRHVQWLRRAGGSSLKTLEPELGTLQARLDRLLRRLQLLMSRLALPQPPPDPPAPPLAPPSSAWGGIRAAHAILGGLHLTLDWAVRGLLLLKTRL

[3] = target: T1, IL-11 stably expressed on CHO cells (membrane-IL-11 CHO); experiment: flow cytometry on membrane-IL-11 CHO cells, detection with goat-anti-Fc-FITC

B1: 3-6A4 (recombinant, expressed in CHO, Example 6) (antibody, human IgG1, kappa, V domains shown)
VH: QIQLVQSGPELKKPGETVKISCKASGYTFTTNGINWVKQAAGKGLKWMGWINTNTGEPTNAEELKGRFAFSLETSASTAYLQINNLKNEDAAIYFCAREGAFGLDYWGQGTSVTVSS
VL: SIVMTQSPKFLLVSAGDRVIITCKASQSVSNDVVWYQQKPGQSPKLLIYYGSHRNTGVPTRFTGSGYGTDFTFTISTVQAEDLAVYFCQQDFFSPWTFGGGTKLEIKR
binding [1]: binds | binding (IL-11-Fc protein): binds

B3: MIL-11 mab-01 (antibody, IgG1, V domains shown)
VH: QVQLVQSGAEVKKPGASVKVSCKASDYTFTNYWLGWVRQAPGQGLEWMGHIYPGGGYTNYNEKFKGRVTMTRDTSTSTVYMELSSLRSEDTAVYYCARVSSGNDALDLWGQGTLVTVSS
VL: EIVLTQSPATLSLSPGERATLSCRASESVDEYGISFMNWFQQKPGQAPRLLIYSGSNEGSGIPARFSGSGSGTDFTLTISSLEPEDFAVYFCNQSKEVPWTFGGGTKLEIK
binding [2]: binds | binding [3]: binds

B4: MIL-11 mab-02 (antibody, IgG1, V domains shown)
VH: B3 VH with L108F
VL: B3 VL with G55A, E58Q, N93Q, V98L
binding [2]: binds | binding [3]: binds

The next lines start with the values.

binding [2]: binds | binding [3]: binds
B2: MIL-11 mab-03 (antibody, IgG1, V domains shown)
VH: B3 VH with L108F
VL: B3 VL with G55A, E58Q, G59A, N93Q, V98L

binding [2]: binds | binding [3]: binds
B5: VH1+VL3 full-length humanized antibody (antibody, human IgG1, kappa, V domains shown)
VH: B3 VH with S100R, L108F
VL: EIVLTQSPATLSLSPGERATLSCRASESVDEYGISFMNWFQQKPGQAPRLLIYSASNQGSGIPARFSGSGSGTDFTLTISSLEPEDFAVYFCQQSKEVPWTFGGGTKLEIKR
